According to PMC8710305:
No constants are given. Whether binding was seen depends on the method and setting. Binding seen in cells or lysates may run through a third protein. Some entries that bind do so weakly or less than the wild type. Where a sequence is shown, tags or fusion partners need not be part of it.

Molecular target: T1, mini-Cubn-Myc (Drosophila melanogaster) (UniProt Q9W332)
T1 sequence: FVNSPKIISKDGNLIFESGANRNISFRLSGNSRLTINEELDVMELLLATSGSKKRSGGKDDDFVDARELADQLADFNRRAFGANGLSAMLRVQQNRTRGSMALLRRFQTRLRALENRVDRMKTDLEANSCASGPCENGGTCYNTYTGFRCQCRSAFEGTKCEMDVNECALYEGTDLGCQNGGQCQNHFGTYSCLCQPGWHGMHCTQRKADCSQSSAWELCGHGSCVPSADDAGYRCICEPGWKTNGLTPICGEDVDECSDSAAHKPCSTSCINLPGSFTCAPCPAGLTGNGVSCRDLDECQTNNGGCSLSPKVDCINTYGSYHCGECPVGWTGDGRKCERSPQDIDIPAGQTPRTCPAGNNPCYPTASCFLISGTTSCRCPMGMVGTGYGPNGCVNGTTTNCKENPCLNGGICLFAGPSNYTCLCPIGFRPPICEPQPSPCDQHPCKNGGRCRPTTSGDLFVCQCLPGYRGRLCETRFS
Test: co-IP; lysate of 80 salivary glands co-expressing mini-Cubn2-HA, mini-Cubn-Myc and Amnionless-V5; mouse anti-Myc on Protein G Dynabeads, overnight at 4°C; lysis buffer 150 mM NaCl, 50 mM Tris-HCl pH 7.5, 1 mM EDTA, 1% Triton X-100, 1 mM DTT; three washes; blots with anti-HA, anti-V5, anti-Myc; control with unspecific rabbit IgGs

B1: Amnionless-V5 (protein, UniProt Q9VPN2 21-505)
chain: TKWYGGGMDFNDPTAWLDDHLPCAQDLVVFPEYYPALLPLPEDISIDGLVFPREGAILLAEESTITFGSDKQPSCESDENKAYLKPPKSSKWFDPGTWTDKSKEFSTFTPELERIPCDDEQVIIKGHGPLAFDLENVQYLRLGQLILAGSSISKTYLEQLISRDLGQFLFYNAEYVQVEYYRGELCGCHKDFERLLEPVCHNVQEQCETPHCLSPVRPLGSCCLICGAILSTPTTHCTEGSRKELVAQISNLISQESLKDQIGLHVEFVGSQKFGNCLQAVVTDRHKYSERSLEFLQQNEHNWNKTGTTLKVSGRPYNPNVSFSSIVLILFCMALVGLVSVVILAHFMPENPYLNRIPQWIHDPRLWRWRHLGLRLRRNLLFNRFDNGGAEGGSSEGGASGVDRLGIMAYDPESGEVRERAFDNPMFEQGGALEEAAKESQEQDEILSVPKMETGDLDARSVVDEQELTEINLETCEADTDEETI
In the case of B1, the binding is reported as “binds”.
